This is an account of results in patent US20250163183A1.

Protein sequences, listed by entry. Tags and fused reporters are not part of them. Lines headed by an entry give the natural chain unless they say otherwise; changes in a name come on top.
UniProt P04070: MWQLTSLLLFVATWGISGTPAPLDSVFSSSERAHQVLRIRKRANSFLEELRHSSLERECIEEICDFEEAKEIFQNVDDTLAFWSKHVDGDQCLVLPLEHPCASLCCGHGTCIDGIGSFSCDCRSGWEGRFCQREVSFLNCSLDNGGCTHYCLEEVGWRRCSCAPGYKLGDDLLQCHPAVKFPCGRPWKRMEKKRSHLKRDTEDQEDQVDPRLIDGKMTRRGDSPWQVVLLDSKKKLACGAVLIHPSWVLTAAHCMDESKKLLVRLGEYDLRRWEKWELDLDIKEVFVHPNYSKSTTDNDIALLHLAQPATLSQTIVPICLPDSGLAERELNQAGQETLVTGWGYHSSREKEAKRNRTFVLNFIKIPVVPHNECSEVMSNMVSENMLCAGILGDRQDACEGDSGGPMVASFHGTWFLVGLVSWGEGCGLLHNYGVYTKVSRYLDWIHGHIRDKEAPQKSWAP

The target in assay [1] is human activated protein C (APC) (human) (UniProt P04070). The assay can be described thus: ELISA. A general note: ELISA stands for enzyme-linked immunosorbent assay.
The target is the same in assay [2]. The assay can be described thus: ELISA screen, APC-coated wells, OD450, n=2.
Assay [3] shares this target. Description: ELISA screen, APC-coated wells, OD450, n=2 [Continued].

No constants are given. Whether binding was seen depends on the method and setting. Some binding calls cover weakened binding; strength is not graded here.

B1: SR16983-R3-P2-D01 (VHH)
VHH: EVQLVESGGGLVQAGGSLRLSCAASGFTFSTKWMYWVRQGPGKGLEWVSTIDASGGSTYYADSVKGRFTISRDNTEKKVYLQMNSLESADTAVYYCARSAGGQFRGRGTQVTVSS
On to B1, for which the binding result in assay [1] and in assay [2] was “binds” throughout.

B2: SR16983-R2-P3-F01 (VHH)
VHH: EVQLVESGGGLVQPGGSLRLSCAASGFTFSTKWMYWVRQGPGKGLEWVSTIDASGGSTYYADSVKGRFTISRDNTEKKVYLQMNSLESADTAVYYCVRSAGGQFRGRGTQVTVSS
Take B2: the binding entry in assay [3] and in assay [1] was “binds” in each case.

B3: SR16983-R3-P5-D08 (VHH)
VHH: EVQLVESGGGLVQAGGSLRLSCTGSGSTFSVTAGGWYRQAPGKQRELVADIANDGSTTYLDFVKGRFTISRDNAKNSVDLQMNSLKPEDTAVYYCFVVGISDSTPRPRAYWGQGTQVTVSS
As to B3, the binding result in assay [3] and in assay [1] was “binds” throughout.

B4: SR16983-R3P2E05 (VHH)
VHH: QVQLVESGGGLVQAGGSLRLSCTTSGSTFSITAGGWYRQAPGEQRELVADVANDGSTSYAESVKGRFTISRDNAKNIVELQMSSLELEDTAVYVCFVVGISDSTPRPRAYWGQGTQVTVAS
Regarding B4, the binding result in assay [3] and in assay [1] was “binds” throughout.

B5: SR16983-R3-P5-F03 (VHH)
VHH: QVQLVESGGGLVQAGGSLRLSCAASGRTVGTYAIGWFRQAPGKEREFVAAFSRSTGNTVYPDSVKGRFTISRDDAKNTLYLQMNSLKPEDTAVYYCAARASINYNYANWPYWGQGTQVTVSS
Consider B5, for which the binding entry in assay [1] and in assay [2] was “binds” throughout.

B6: SR16983-R3-P5-G12 (VHH)
VHH: QLQLVESGGGLVQAGGSLRLSCVASGRTVGSYAVAWFRQAPGKERELLAASSRSTGNTVYADSVKGRFTIARDDAKNTLYLQMNSLKPEDTAVYYCAARASINYNYANWPYWGQGTQVTVSS
On to B6, for which the binding entry in assay [3] and in assay [1] was “binds” each time.

B7: SR16983-R3-P3-H10 (VHH)
VHH: QVQLVESGGGLVQAGDSLRLSCAASTRTVGTYVMGWFRQAPGKERELVAASSRSTGNTVYPDSVKGRFTVSRDDAKNALYLQMNSLKPEDTAIYYCAARASINYNYANWPYWGQGTQVTVSS
Regarding B7, the binding entry in assay [3] and in assay [1] was “binds” throughout.

B8: SR16983-R2-P3-B01 (VHH)
VHH: QLQLVESGGGLVQAGGSLRLSCAASGRTFGTYVIGWFRQAPGKEREFVAAFSRSTGNTVYPDSVKGRFTISRDDAKNTVTLQMNSLKPEDTAVYYCAARASINYNYANWPYWGQGTQVTVSS
On to B8, for which the binding entry in assay [3] and in assay [1] was “binds” each time.

B9: SR16983-R2-P3-E05 (VHH)
VHH: EVQLVESGGGLVQAGGSLRLSCAASGLTASTYVMAWFRQAPGKERDFVSLIDWRGEPTYANSVKGRFTISRDNGKNTVFLQMNSLRPEDTALYYCAVRASPGYVASLYPYWGRGTQVTVSS
Take B9: the binding result in assay [3] and in assay [1] was “binds” in each case.

B10: SR16983-R3-P3-G04 (VHH)
VHH: QLQLVESGGGLVQAGGSLRLSCTASGSTVRVTAGGWYRQAPGNERELVADIDNGGRPTYADSVKGRFTISRDNAKNAVDLQMNNLKPEDTAVYYCFVIAIPDSAPRPRAYWGQGTQVTVSS
On to B10, for which the binding entry in assay [3] and in assay [1] was “binds” each time.

B11: SR16983-R2-P2-D01 (VHH)
VHH: QLQLVESGGGLVQAGGSLRLSCVASGRTFSTYAMGWFRQAPGKEREFVGAIRWDGGSTNYANSVKGRFTISRDNAKNTVYLQVNSLKPEDTAVYYCAARASINYNYANWPYWGRGTQVTVSS
B11: the binding entry in assay [3] and in assay [1] was “binds” in each case.

B12: SR16983-R3-P3-H05 (VHH)
VHH: QVQLVESGGGLVQPGRSLRLSCAASGFTFSTKWMYWVRQGPGKGLERVAAIDAGGGSTYYADSVKGRFTISRDNSENTVYLQMNSLESADTAVYYCARSEGGLFRGRGTQVTVSA
Take B12: the binding entry in assay [1] and in assay [2] was “binds” throughout.

B13: SR16983-R3P2A08 (VHH)
VHH: QLQLVESGGGLVQPGGSLRLSCAASGFTFSTKWMYWVRQGPGKGLERVAAIDASGGSTYYADSVKGRFTISRDNSENTVYLQMNSLESADTAVYYCARSEGGLFRGRGTQVTVSA
For the molecule B13, the binding entry in assay [3] and in assay [1] was “binds” each time.

B14: SR16983-R2-P3-F10 (VHH)
VHH: QVQLVESGGGLVQPGGSLRLSCKASGFTFSTKWMYWVRQGPGKGLERVAAIDASGGSTYYADSVKGRFTISRDNSDNTVYLQMNSLESADTAVYYCARSEGGQFRGQGTQVTVSS
For B14, the binding result in assay [3] and in assay [1] was “binds” in each case.

B15: SR16983-R3P2A5 (VHH)
VHH: QLQLVESGGGLVQPGGSLRLSCAASGFTFSTKWMYWVRQGPGKGLERVAAIDASGGSTYYADSVKGRFTISRDNSENTLYLQMNSLESADTAVYYCARSEGGLFRGRGTQVTVSA
On to B15, for which the binding result in assay [3] and in assay [1] was “binds” throughout.

B16: SR16983-R3-P2-G01 (VHH)
VHH: QLQLVESGGGLVQAGGSLRLSCAASGSTFSFNYMGWYRQAPGNQRDLVARISSGGITNYADSVKGRFTISGDNAKNTVYLQMNSLKPEDTARYYCFYNGYLNKWGRGTQVTVSS
Take B16: the binding result in assay [1] and in assay [2] was “binds” in each case.

B17: SR16983-R2-P4-E11 (VHH)
VHH: QLQLVESGGGLVQAGGSLRLSCAASGTTFSFVYMGWYRQAPGNQRDLVARISRDGSTNYLDSVKGRFTISGDNAKNTVYLQMNSLKPEDTARYYCFYNGHLNKWGRGTQVTVSS
Take B17: the binding entry in assay [3] and in assay [1] was “binds” each time.

B18: SR16983-R2-P2-H04 (VHH)
VHH: QVQLVESGGGLVQAGGSLRLSCAASGTTFSFVYMGWFRQAPGNQRDLVARISSDGSTNYADSVKGRFTISGDNAKNTVYLQMNSLKPEDTARYFCFYNAHLNKWGQGTQVTVSS
B18: the binding entry in assay [1] and in assay [2] was “binds” each time.

B19: SR16983-R2P1F04 (VHH)
VHH: QLQLVESGGGLVQAGGSLRLSCAASRTTFSFNYMGWYRQAPGNQRDLVARISSGGITNYADSVKGRFTISGDNAKNTVYLQMNSLKPEDTARYYCFYNGHLNKWGQGTQVTVSS
Consider B19, for which the binding result in assay [1] and in assay [2] was “binds” in each case.

B20: SR16983-R2-P2-F02 (VHH)
VHH: QLQLVESGGGLVQAGGSLRLSCAASGTTFSFVYMGWYRQAPGNQRDLVARISSDGSTNYADSVKGRFTISRDNAKNTVYLQMNSLRPEDTARYYCFYNGHLNKWGQGTQVTVSS
As to B20, the binding entry in assay [1] and in assay [2] was “binds” in each case.

B21: SR16983-R3-P4-E11 (VHH)
VHH: QLQLVEFGGGLVQAGGSLRLSCAASGSTFSFNYMGWYRQAPGNQRDLVARISSGGITNYADSVKGRFTISGDNAKNTVYLQMNSLKPEDTARYYCFYNGYLNKWGQGTQVTVSS
With B21, the binding entry in assay [3] and in assay [1] was “binds” each time.

B22: SR16983-R2-P5-D01 (VHH)
VHH: QLQLVESGGGLVQAGGSLRLSCVASGTTFTIEDIGWYRLAPGKQRELVAIISGGNTNYADSVKGRFTISRDNTKNTVYLQMNSLKPEDTAVYYCNGRTKATVKWGRGTQVTVSS
As for B22, the binding entry in assay [3] and in assay [1] was “binds” in each case.

B23: SR16983-R4-P1-A05 (VHH)
VHH: EVQLVESGGGLVQAGESLRLSCVLSGSTFGRNVITWYRQPPGKQREFIAMITTSGNTRYADSVKGRFTMSRDTAKNTAFLQMSNLKLEDTAVYYCWTAIAGQGEYWGQGTQVTVSS
Take B23: the binding result in assay [1] and in assay [2] was “binds” in each case.

B24: SR16983-R2P1C10 (VHH)
VHH: QLQLVESGGGLVQPGGSLRLSCAASGRIFGSYVMGWFRQAPGKEHEFVAASSRSTGNTVYLDSVKGRFTISRDDAKNTLYLQMNSLKPEDTAVYYCATRASINYNYANWPYRGQGTQVTVSS
Turning to B24, the binding result in assay [1] and in assay [2] was “binds” in each case.

B25: SR16983-R3P2D06 (VHH)
VHH: QLQLVESGGGLVQPGGSLRLSCAASGRTVGSYVMGWFRQAPGKERELLAASSRSTGNTVYADSVKGRFTISRDDAKNTLYLQMNSLKPEDTAVYYCAARASINYNYANWPYWGQGTQVTVSS
Regarding B25, the binding entry in assay [3] and in assay [1] was “binds” each time.

B26: SR16983-R3-P5-H06 (VHH)
VHH: QLQLVESGGGLVQAGGSLRLSCAASGRTFGTYVIGWFRQAPGKEREFVAAFSRSTGNTVYPDSVKGRFTISRDDAKNTVYLQMNSLKPEDTAVYYCAARASINYNYANWPYWGQGTQVTVSS
Regarding B26, the binding result in assay [3] and in assay [1] was “binds” each time.

B27: SR16983-R2-P3-F12 (VHH)
VHH: QVQLVESGGGLVQAGGSLRLSCAASGRTFGTYVMGWFRQAPGKEREFVAAFSRSTGSTTYADSVKGRFTISRDDAKNTLYLQMNSLKPEDTAVYYCATRASINYNYANWPYWGQGTQVTVSS
As for B27, the binding result in assay [3] and in assay [1] was “binds” each time.

B28: SR16983-R2-P4-E03 (VHH)
VHH: QVQLVESGGGLVQAGGSLRLSCAASGRTFSSGALGWFRQAPGKEREFVATIRWSDERKQYSEFVKGRFTISRDSAKNTVYLQMNNLQPEDTAVYYCRSTVGNVLYWGQGTQVTVSS
As for B28, the binding entry in assay [1] and in assay [2] was “binds” each time.
